In article PMC10163288:
Some of the results follow.

B1: il2ra_site2_2erj_normal_mot_HHH_b1_01197_000000128_0001_38_49_H_._HHH_b1_08340_0001_0000300010_0000001_0 (protein)
chain: SSSSDELRERIEELLEELEKLVKEGDLARVQEVAQEIAELLRELGDPELAKELNRLLQEAMSSSS
B2: il2ra_site2_3nfp_normal_mot_HHH_b1_00660_af2_000000090_0001_40_57_H_._HHH_b1_06383_af2_0001_0000300014_0000001_0 (protein)
chain: SSSSSELEERIRRLLEELEERIKEGDEERVRELLEEIANLIWELQNFELFAILNELRALAASSSS
B3: il2ra_site2_2erj_sap_20_mot_HHH_b1_05785_af2_000000218_0001_1_18_H_._ems_3hM_3566_0001_0000700017_0000001_0_0001 (protein)
chain: SSSSDEELRRLYELANELMRLLSEGDEEEFEKVLEEAKELAHRRNSENAEEVLEWLEKALSSSSS
B4: il2ra_site1_2b5i_normal_mot_0e5a94e4a5addaac739760efb25f0f5d_0001_000000289_0001_18_32_H_._ems_p1-16H-GBL-16H-GABBL-16H_0048_0001_0001_0001_0001_0000300027_0000 … (protein)
chain: SSSSSKAEKLATEVYDIASAKGDKEALKEAIRILYDYQTGRLSEEEAVERLTKLKERVLESSSSS
B5: il2ra_site1_2b5i_normal_mot_7f4edd48de514878b8c7c0e8b1dada65_0001_af2_000000251_0001_36_50_H_._HHH_b2_03947_0001_0000100001_0000001_1_af2pred_dldesign_0_af2pred (protein)
chain: SSSSSSSAKEKVEELLEKAKTLKDEFELNKTLFEAYIVARKAKDEEMLKKIEKLWNELSSSSSSS
B6: il2ra_site2_2erj_normal_mot_HHH_b2_06005_000000006_0001_1_15_H_._HHH_b2_07199_0001_0000100003_0000001_0 (protein)
chain: SSSSSDEERVEQLLEEVEELLRRGNPEEAFAVLAEAVEVAVRAQNEELLRLIREVFEEVYNSSSS
B7: il2ra_site1_2b5i_sap_8_mot_22370d59370c406a0c205a431f537cfa_0001_af2_000000141_0001_1_31_H_._HHH_b2_02941_af2_0001_0000100002_0000001_0_0001_af2pred_0001_af2pre … (protein)
chain: SSSSDKELAEELVEALLEEAKHIEDEKRALAIVSLAIAVARAGRDEELRELAEEVLEELRSSSSS
B8: il2ra_site1_1z92_sap_12_mot_HHH_b2_00969_af2_000000010_0001_43_57_H_._143a287d0b402db772f1b684e0b208e7_0001_0001_0000400040_0000001_0_0001 (protein)
chain: SSSSDLKRSAEIVVRMAVEVAGLSEEQKEELERVAEEALERGLDFLEILKLLDKVARELDSSSSS
B9: il2ra_site2_2erj_normal_mot_HHH_b1_05402_000000256_0001_22_39_H_._HHH_b1_03332_0001_0000700044_0000001_0 (protein)
chain: SSSSDLEEEIRELLEELERAIREGDKELVRKLQERISQLIYELGDEELFSELAELAIAIYTSSSS
B10: il2ra_site1_1z92_normal_mot_3cad0fa5fd511b0551b272d6504d3e9d_0001_1_000000015_0001_37_51_H_._9024fc7fac297d0408f6c2d12835a220_0001_1_0002_0000200029_0000001_0 (protein)
chain: DLEELLEEAEERGDVELVTVLRFLLRLAENLDVPPEEAIKALKRAAKQMGNPRLEELVKKVEELH
B11: il2ra_site1_2b5i_normal_mot_ems_3hM_2197_000000181_0001_1_19_H_._HHH_b1_08418_af2_0001_0000200030_0000001_0 (protein)
chain: SSSSSEEVEKAEELAEEVLELLKELGDEYLFEFVRRRLEALRERQDPRAAKSLIRAAAAYSSSSS
B12: il2ra_site2_3nfp_normal_mot_HHH_b2_04451_000000238_0001_21_37_H_._HHH_b1_04560_af2_0001_0000800047_0000001_0 (protein)
chain: SSSSDEEEEKIKELIKEAEELLEEGDPYEALEVLAEASQLAARLGNDELARRILELFEKVQSSSS
B13: il2ra_site2_3nfp_sap_26_mot_HHH_b2_05313_af2_000000119_0001_39_56_H_._254fc17bb08746de5dae9ef87d53b160_0001_0001_0000100003_0000001_0_0001 (protein)
chain: SSSSLEEEVEELLREARELLEEGDKFQAAHLVLRASELAAKNNNEELARKILELFEEIQRRSSSS
B14: il2ra_site1_3nfp_sap_20_mot_HHH_b2_06507_000000196_0001_21_38_H_._HHH_b1_07336_0001_0000300011_0000001_0_0001 (protein)
chain: SSSSSKEEVHELAQRVLRLAFEGDEEEAKELLREAEELAEELGDESSKRFLELLKRDIERWSSSS
B15: il2ra_site2_2erj_normal_mot_64bd02d26d05ce9f1a62b616cea0b888_0001_af2_000000029_0001_36_49_H_._HHH_b2_05536_af2_0001_0000800038_0000001_0 (protein)
chain: SSSSDERLERLYKLLVRLLRLAANGDEEEFEKLAEELQELAEELQSNSVEEVVESLKRLLSSSSS
B16: il2ra_site1_2b5i_normal_mot_HHH_b2_06044_000000134_0001_1_20_H_._HHH_b1_06937_af2_0001_0000100002_0000001_0_af2pred_dldesign_0_af2pred (protein)
chain: SSSSDEKEDEVYDLFNEALELKKQGKKEEAKELLEKAIEVAEAAGLEKAVEELRYFLEKLSSSSS
B17: il2ra_site2_3nfp_sap_26_mot_HHH_b1_07277_000000260_0001_23_39_H_._HHH_eva_0486_af2_0001_0000400016_0000001_0_0001 (protein)
chain: SAELARRIVELVRRGDPVAEALFALLADVAYKGDPELERLLEEALEALERGNPEEAEEIVRKALK
B18: il2ra_site1_2b5i_sap_10_mot_HHH_b2_04274_000000042_0001_1_19_H_._HHH_b2_02970_0001_0000300034_0000001_0_0001_af2pred_dldesign_0_af2pred (protein)
chain: SPKRALFEVLDEIVKKDPRFEDAVQEVMRLLSRGDPRLAARAQELIDALEEVDPEAAARLRAALE
B19: il2ra_site1_3nfp_normal_mot_HHH_b1_04372_000000168_0001_18_32_H_._2e98e7bbb80d485e9cb659e66a2d41f2_0001_af2_0001_0000300019_0000001_1 (protein)
chain: DNREFVIELLKKDPENEDIAEALKELLELAEKGDQEAFKLFRELNQLLAQGDPEEAKRLAEEVLK
B20: il2ra_site1_3nfp_normal_mot_b29dd7dff93b1ac3f1fd774082f773f6_0001_000000159_0001_35_51_H_._HEEHE_0493_0001_0000300038_0000001_1_af2pred_0001_af2pred_1 (protein)
chain: DREELVAEAIEEIAEIAGVPSVSVSVENGTLRVEFEGNDFRVEAARRIAERMVKANNVEIEIEVR
B21: il2ra_site2_2erj_sap_19_mot_66c2fca85847babee3b8944584cfd08f_0001_1_000000223_0001_16_30_H_._c264f418a867ce4938133f27b88868c4_0001_af2_0001_0001200048_0000001_0 … (protein)
chain: SSSSSDEEELEERVRRLLEEAEKIEDIEEALRLLQEADQLAVEADDPELLEEVDRVARRLSSSSS
B22: il2ra_site2_2erj_normal_mot_HHH_b2_05804_000000098_0001_44_58_H_._HHH_b1_07085_0001_0000100001_0000001_0 (protein)
chain: SSSSSSEKEVWERVARLLAKLLEVDEEEAEELLREAEELAREAGNPFLRRYVEFARRAHSSSSSS
B23: il2ra_site1_1z92_normal_mot_01209686ea234b34325f918445e6eade_0001_af2_000000154_0001_18_33_H_._7b307295d781cb7152fbdfa8f828ada6_0001_0001_0000600015_0000001_0_a … (protein)
chain: SKLEEVERLLEELAKKDPLARELLLALEEMKRAGLPPRSIALALVRLAEHAGNPELAELIQEILR
B24: il2ra_site2_3nfp_normal_mot_HHH_b1_06642_af2_000000244_0001_21_37_H_._ems_3hM_1036_0001_0000100008_0000001_0_af2pred_0001_1_af2pred_swapped (protein)
chain: PEEEEEELQRRALELYAAVADATSEEEAKRIIKEAKEWVEEVGDEEVAKLLKLALEEARELVERS

Target: il2ra, P01589
Assay: yeast display titration

Apparent Kd, inactive:
B1 no binding seen
B2 no binding seen
B3 no binding seen
B4 no binding seen
B5 no binding seen
B6 no binding seen
B7 no binding seen
B8 no binding seen
B9 no binding seen
B10 no binding seen
B11 no binding seen
B12 no binding seen
B13 no binding seen
B14 no binding seen
B15 no binding seen
B16 no binding seen
B17 no binding seen
B18 no binding seen
B19 no binding seen
B20 no binding seen
B21 > 455 nM
B22 no binding seen
B23 no binding seen
B24 no binding seen

2 records picked at random from the list so far, as already listed:
Apparent Kd, inactive:
B18 no binding seen
B14 no binding seen
